PMC12435490
Results are given in words; binding and its absence hold for the method and conditions named. Binding seen in cells or lysates may run through a third protein. A yes stands for co-enrichment or nearness to the bait. Other partners may have been found. Tags and fused reporters may be left off the sequences shown.

Sequences of proteins named here, by UniProt entry; tags and fusion partners are left off.
UniProt P30153: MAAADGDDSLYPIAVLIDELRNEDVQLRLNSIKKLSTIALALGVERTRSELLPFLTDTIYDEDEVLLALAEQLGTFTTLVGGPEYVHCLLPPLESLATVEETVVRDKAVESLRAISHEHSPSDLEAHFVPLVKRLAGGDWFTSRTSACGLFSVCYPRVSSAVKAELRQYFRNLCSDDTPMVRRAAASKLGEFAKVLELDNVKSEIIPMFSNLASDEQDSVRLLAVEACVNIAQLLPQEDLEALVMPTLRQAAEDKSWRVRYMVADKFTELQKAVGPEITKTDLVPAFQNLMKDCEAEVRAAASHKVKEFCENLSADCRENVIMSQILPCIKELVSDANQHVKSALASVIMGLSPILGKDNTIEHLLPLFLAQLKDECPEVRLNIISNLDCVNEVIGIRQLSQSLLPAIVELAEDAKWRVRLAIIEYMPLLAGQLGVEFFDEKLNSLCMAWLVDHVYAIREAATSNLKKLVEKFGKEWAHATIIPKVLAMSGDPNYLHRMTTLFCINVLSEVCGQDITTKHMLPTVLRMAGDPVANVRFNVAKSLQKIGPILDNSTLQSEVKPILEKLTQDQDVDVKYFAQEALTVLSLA
UniProt P67775: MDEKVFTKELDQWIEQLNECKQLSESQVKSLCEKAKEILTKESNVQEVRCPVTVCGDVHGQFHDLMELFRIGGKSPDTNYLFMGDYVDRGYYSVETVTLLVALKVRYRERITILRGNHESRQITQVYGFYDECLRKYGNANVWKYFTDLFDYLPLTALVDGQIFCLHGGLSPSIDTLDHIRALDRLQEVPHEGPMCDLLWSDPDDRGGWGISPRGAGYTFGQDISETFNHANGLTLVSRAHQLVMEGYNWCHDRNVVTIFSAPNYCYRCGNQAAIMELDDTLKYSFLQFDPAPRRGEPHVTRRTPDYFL

Target: T1, Flag-MKRN2, expressed in A498 cells (human) (UniProt Q9H000)
T1 sequence: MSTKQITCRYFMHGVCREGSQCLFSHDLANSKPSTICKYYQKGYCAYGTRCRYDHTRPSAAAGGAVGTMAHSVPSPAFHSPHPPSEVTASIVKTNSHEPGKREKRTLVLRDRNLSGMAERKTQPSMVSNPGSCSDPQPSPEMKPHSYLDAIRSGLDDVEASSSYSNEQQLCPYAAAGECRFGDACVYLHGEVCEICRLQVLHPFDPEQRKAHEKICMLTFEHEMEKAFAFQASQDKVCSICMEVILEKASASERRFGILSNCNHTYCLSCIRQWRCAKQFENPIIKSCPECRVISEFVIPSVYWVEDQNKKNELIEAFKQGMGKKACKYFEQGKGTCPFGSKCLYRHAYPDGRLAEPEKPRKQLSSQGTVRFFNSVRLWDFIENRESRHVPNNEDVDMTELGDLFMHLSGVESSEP
Experiment: affinity purification with mass spectrometry; co-IP of Flag-MKRN2 against vector control from A498 cells; gel strips analysed by mass spectrometry

| binding | Substance |
| --- | --- |
| binds | PPP2R1A, endogenous (from UniProt P30153 1-589) |
| binds | Protein Phosphatase 2 Catalytic Subunit Alpha (PPP2CA), endogenous (from UniProt P67775 1-309) |
